Measured values published in article PMC7754016.

Amino acid sequences for entries named in this document (tags omitted). A change or cut given only in a name is not applied to a line headed by its entry.
UniProt P35680: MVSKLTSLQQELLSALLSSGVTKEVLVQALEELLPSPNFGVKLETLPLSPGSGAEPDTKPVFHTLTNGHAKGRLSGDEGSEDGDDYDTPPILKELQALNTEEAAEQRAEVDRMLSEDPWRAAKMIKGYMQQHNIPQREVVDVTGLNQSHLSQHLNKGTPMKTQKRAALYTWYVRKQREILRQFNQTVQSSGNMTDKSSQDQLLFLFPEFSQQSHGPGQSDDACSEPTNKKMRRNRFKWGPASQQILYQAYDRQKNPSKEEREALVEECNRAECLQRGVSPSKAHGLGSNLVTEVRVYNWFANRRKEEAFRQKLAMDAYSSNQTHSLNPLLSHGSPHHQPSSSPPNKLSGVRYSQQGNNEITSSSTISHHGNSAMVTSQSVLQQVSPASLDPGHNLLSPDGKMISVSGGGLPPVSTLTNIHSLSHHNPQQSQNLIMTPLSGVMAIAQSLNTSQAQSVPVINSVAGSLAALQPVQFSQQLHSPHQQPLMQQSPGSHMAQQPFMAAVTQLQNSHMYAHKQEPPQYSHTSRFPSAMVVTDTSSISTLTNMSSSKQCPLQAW
UniProt Q8N726: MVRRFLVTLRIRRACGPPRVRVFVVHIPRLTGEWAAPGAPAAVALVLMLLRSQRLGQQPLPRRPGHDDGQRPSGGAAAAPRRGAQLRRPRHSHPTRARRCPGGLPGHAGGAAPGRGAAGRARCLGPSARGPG

Target: Flag-HNF1B (Hepatocyte Nuclear Factor 1β) (UniProt P35680)
Assay: affinity purification with mass spectrometry; cell lysate incubated with the marker antibody 3 h at 4°C, protein A-Sepharose beads 1 h at 4°C, washed five times with NETN buffer; gel piece with the FLAG-HNF1B complex digested with trypsin, LC-MS/MS

CDKN2A found in the FLAG-HNF1B immunoprecipitate (from UniProt Q8N726)
binding: binds

Results are given in words; binding and its absence hold for the method and conditions named. Binding seen in cells or lysates may run through a third protein. Here binding means that the protein was enriched with, or labelled near, the bait; the list need not be complete.
